US7319140
These are yes or no findings as the source states them, for the method shown. In cells and extracts the contact can be indirect. Some results given as binding are weak or reduced against the parent protein; the word gives no strength.

By UniProt entry, the sequences of proteins in these tests, tags left out. Where a name states a change or a piece, a line headed by the entry shows the natural chain unless it says otherwise. Residues count along the entry.
UniProt P43631, residues 22-304: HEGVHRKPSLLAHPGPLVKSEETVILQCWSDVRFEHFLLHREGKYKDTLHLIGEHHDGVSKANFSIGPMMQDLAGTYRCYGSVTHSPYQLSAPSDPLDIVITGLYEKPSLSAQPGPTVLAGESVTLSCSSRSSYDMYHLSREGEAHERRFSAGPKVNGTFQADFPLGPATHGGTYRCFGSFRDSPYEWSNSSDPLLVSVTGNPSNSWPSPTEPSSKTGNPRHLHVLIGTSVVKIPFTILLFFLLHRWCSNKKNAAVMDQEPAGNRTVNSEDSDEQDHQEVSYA
UniProt O43914: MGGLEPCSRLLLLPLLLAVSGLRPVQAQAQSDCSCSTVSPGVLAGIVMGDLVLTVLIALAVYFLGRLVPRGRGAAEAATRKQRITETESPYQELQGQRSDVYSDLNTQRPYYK

Key:
KIR2DS2 (human) [1] = biological target: KIR2DS2 (human) (UniProt P43631); assay: summary of the co-immunoprecipitations
KIR2DS2 (human) [2] = biological target: KIR2DS2 (human) (UniProt P43631); assay: summary of the co-immunoprecipitation with KIR2DS2
KIR2DS2 (human) [3] = biological target: KIR2DS2 (human) (UniProt P43631); assay: reciprocal co-immunoprecipitation from 125I-labelled 1% digitonin lysates of Ba/F3 transfectants

Measured: binding

DAP12-FLAG (human DAP12 with a FLAG epitope tag at the N terminus) (from UniProt O43914 28-113) (receptor)
binds: all assays above
